Source: patent US20230056815A1
Changes are numbered by the printed parent chain. No constants are given. Whether binding was seen depends on the method and setting. Some results given as binding are weak or reduced against the parent protein; the word gives no strength. Blank lines part the entries; values can stand above or below the binder they belong to.

By UniProt entry, the sequences of proteins in these tests, tags left out. Residues count along the entry.
UniProt P49771, residues 27-184: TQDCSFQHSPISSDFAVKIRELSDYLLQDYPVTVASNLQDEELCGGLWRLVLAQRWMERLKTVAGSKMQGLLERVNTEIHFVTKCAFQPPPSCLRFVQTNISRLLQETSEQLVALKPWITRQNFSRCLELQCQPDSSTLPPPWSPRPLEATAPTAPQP

Assays:
[1] = target: human soluble FLT3L (recombinant huFLT3L) (human) (UniProt P49771); assay: endogenous soluble FLT3L in human serum; assay not described
[2] = target: human soluble FLT3L (recombinant huFLT3L) (human) (UniProt P49771); assay: Octet epitope binning: biotin-FLT3L on the avidin probe, CAT8 bound in Phase II, test molecule added in Phase III
[3] = target: human soluble FLT3L (recombinant huFLT3L) (human) (UniProt P49771); assay: competition HTRF (15 min): % of inhibition of the interaction of biotin-labeled FLT3L with FLT3-mFc; the IgG is titrated
[4] = target: human soluble FLT3L (recombinant huFLT3L) (human) (UniProt P49771); assay: Octet on biotin-FLT3L, dissociation in buffer
[5] = target: human soluble FLT3L (recombinant huFLT3L) (human) (UniProt P49771); assay: Octet epitope binning: biotin-FLT3L on the avidin probe, CAT5D9 bound in Phase II
[6] = target: human soluble FLT3L (recombinant huFLT3L) (human) (UniProt P49771); assay: Octet epitope binning: biotin-FLT3L on the avidin probe, CAT5D9 bound in Phase II, test molecule added in Phase III

- binding [1]: binds
B1: SC4017 antibody (antibody, V domains shown)
VH: QVQLVQSGAEVKKPGSSVKVSCKASGGTFSSYALSWVRQAPGQGLEWMGTRPPTSRTASYAQKFQGRVTITVDESTSTGYMELSSLRSEDTAVYYCASNDFVYGSYRFWGQGTTVTVSS
VL: NFMLTQPHSVSESPGKTVTISCTRTSGWIAGYFVQWYQQRPGSSPTTVIYEDYQRPSGVPDRFSGSIDSSSNSASLTISGLKTEDEADYYCQSYDDYRRAAFGGGTKLTVLG

- binding [2]: binds
- binding [3]: binds
- binding [4]: binds
- binding [5]: binds
B2: CAT5D9 antibody (IgG1 TM format) (antibody, V domains shown)
VH: QVQLVQSGAEVKKPGSSVKVSCKISGGTFSSYALSWVRQAPGQGLEWMGGIIPVFRTASYAQKFQGRVTITVDESASTGYIELSSLKSEDTATYYCASNNYVWGSYRFWGQGTTVTVSS
VL: NFMLTQPHSVSESPGKTVTISCTRTSGNIAGYFVQWYQQRPGSSPTTVIYEDYQRPSGVPDRFSGSIDRSSNSASLTISGLKPDDEADYYCQSYDDTSQGVFGAGTKVTVLG

- binding [1]: binds
B3: AM40 (MEDI1116) antibody (antibody, V domains shown)
VH: B1 VH
VL: B1 VL with W28N

- binding [3]: binds
- binding [6]: binds
- binding [4]: binds
B4: CAT26 antibody (IgG1 TM format) (antibody, V domains shown)
VH: EVQLLESGGGLVQPGGSLRLSCAASGFTFSSYAVSWVRQAPGKGLEWVSAISGSGGSTYYADSVKGRFTISRDNSKNTLYLQMNSLRAEDTAVYYCVKDAYGSSWYFYYFDYWGQGTMVTVSS
VL: QSVLTQPPSASGTPGQRVTISCSGSSSNIGINPVNWYQQLPGTAPKVLIYSDKYRPSGVADRFSGSKSGTSASLAISGLQSEDEADYFCAAWDDSLNGRVFGTGTKLTVL
